Assay: Concentration-, time- and temperature-dependent radiolabeling with ^44Sc
Format: physicochemical
Conditions: for Time-dependent complexation, % as Sc-Ligand: 10 nmol; for Apparent Molar Activity: ^44Sc

Row | SMILES | Time-dependent complexation, % as Sc-Ligand (t = 10 min, 80° C.) | Time-dependent complexation, % as Sc-Ligand (t = 10 min, RT) | Time-dependent complexation, % as Sc-Ligand (t = 30 min, 80° C.) | Time-dependent complexation, % as Sc-Ligand (t = 30 min, RT) | Time-dependent complexation, % as Sc-Ligand (t = 60 min, 80° C.) | Time-dependent complexation, % as Sc-Ligand (t = 60 min, RT) | Apparent Molar Activity (80° C.) | Apparent Molar Activity (Room Temp)
1 | O=C(O)CC[C@H](NC(=O)N[C@@H](CCC(=O)NCCCCCNC(=O)CCC(C(=O)O)N1CCN(CC(=O)O)CCN(Cc2cccc(C(=O)O)n2)CC1)C(=O)O)C(=O)O (stereo in doubt) [PICAGA, 2-{3-[(R)-1-Carboxy-4-[5-(4-carboxy-4-{7-(carboxymethyl)-4-[(6-carboxy-2-pyridyl)methyl]-1,4,7-triazonan-1-yl}butyrylamino)pentylamino]-4-oxobutyl]ureido}glutaric acid] | 96.1% | 70.8% | 96.7% | 72.4% | 93.7% | 78.8% | 0.500 Ci/μmol | 0.728 Ci/μmol
2 | O=C(O)CN1CCN(CC(=O)O)CCN(CC(=O)O)CCN(CC(=O)O)CC1 [DOTA, reference compound] | 78.9% | 69.6% | 76.6% | 69.4% | 74% | 67% | 3.616 Ci/μmol | 1.268 Ci/μmol
3 | O=C(O)CN1CCN(CC(=O)O)CCN(Cc2cccc(C(=O)O)n2)CC1 [MONOPIC, 6-{[4,7-Bis(carboxymethyl)-1,4,7-triazonan-1-yl]methyl}-2-pyridinecarboxylic acid] | 94.5% | – | 92.1% | 86.7% | 95.5% | 84.5% | 0.599 Ci/μmol | 0.399 Ci/μmol
4 | O=C(O)CN1CCN(Cc2cccc(C(=O)O)n2)CCN(Cc2cccc(C(=O)O)n2)CC1 [NO1A2PIC] | 94.3% | 38.3% | 97.7% | 48.2% | 93.5% | 53.6% | 1.483 Ci/μmol | 0.0547 Ci/μmol
5 | O=C(O)c1cccc(CN2CCN(Cc3cccc(C(=O)O)n3)CCN(Cc3cccc(C(=O)O)n3)CC2)n1 [NO3PIC] | 71.1% | 44.3% | 75.1% | 45.4% | 73.3% | 43.4% | 0.0969 Ci/μmol | –

Reference: patent US20210276971A1, “TRIAZAMACROCYCLE-DERIVED CHELATOR COMPOSITIONS FOR COORDINATION OF IMAGING AND THERAPY METAL IONS AND METHODS OF USING SAME” (The Research Foundation for The State University of New York, priority 2018, published 2021)
